Reference: PubChem BioAssay AID504764 (Drosophila RNAi Screening Center, 2011)

Purpose: 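Knock-downs that raise or lower a Notch target reporter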 (primary screen)
Cells: Drosophila Kc167 cells
Reagent: long dsRNA against Drosophila genes
Timing: about 5 days (4 days dsRNA, then 24 h after transfection)
Treatment: transfection of constitutively active membrane-tethered Notch lacking the extracellular domain, read 24 h later
Read-out: 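Firefly luciferase from an E(spl)m3 reporter with active Notch, plus control-promoter and uninduced reporter wells for normalisation; unnormalised counts, duplicate wells a and b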
Reading the numbers: induced reporter light, run 1, well a and induced reporter light, run 1, well b: higher = more light from the Notch target reporter with active Notch; control promoter light, run 1, well a and control promoter light, run 1, well b: higher = more light from the viral control promoter (cell number, transfection, viability); uninduced reporter light, run 1, well a: higher = more light from the Notch target reporter without active Notch
Call rule: 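Hit if the duplicate-averaged log2 ratio of induced to control-promoter light gives a plate-wise z beyond ±2, or induced to uninduced beyond ±1.8; weak-control or discordant-duplicate wells dropped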
Meaning of the calls: active = modifier hit (raised or lowered Notch signal); inactive = not a hit
The screen tested about 22,000 reagents; below is a random part of those that have a named target and a result. Of all reagents, 403 (1.9%) got an active call. 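Unnormalised raw counts per well; ratio z-scores behind the hit calls and whether each hit raises or lowers signal are not deposited.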 Unmarked entries are inactive. A plus sign joins genes that one reagent is predicted to hit. Reagent sequences are not shown. The record does not give: the amount of reagent.

| gene | amplicon | induced reporter light, run 1, well a | induced reporter light, run 1, well b | control promoter light, run 1, well a | control promoter light, run 1, well b | uninduced reporter light, run 1, well a |
| --- | --- | --- | --- | --- | --- | --- |
| CG12688 (retired record) | DRSC17877 | 1.62e5 | 1.39e5 | 2.25e5 | 2.83e5 | 11045 |
| CG12688 (retired record) | DRSC17878 | 1.04e5 | 93040 | 1.51e5 | 1.51e5 | 7310 |
| Tbc1d22 | DRSC15867 | 1.65e5 | 1.68e5 | 2.22e5 | 2.02e5 | 14700 |
| CG30413 | DRSC04001 | 1.50e5 | 1.57e5 | 2.54e5 | 2.53e5 | 8255 |
| CG13794 | DRSC02298 | 87000 | 1.59e5 | 1.11e5 | 1.41e5 | 20935 |
| Cul1 | DRSC07645 | 1.77e5 | 1.41e5 | 95745 | 1.16e5 | 12900 |
| mRpL15 | DRSC11771 | 84140 | 84135 | 61925 | 66895 | 7615 |
| CG31274 + MESK4 | DRSC13202 | 1.17e5 | 1.27e5 | 1.66e5 | 1.64e5 | 10235 |
| CG14229 | DRSC19585 | 18635 | 18985 | 18078 | 21695 | 7265 |
| DCTN2-p50 | DRSC07132 | 1.44e5 | 1.73e5 | 1.32e5 | 1.33e5 | 12895 |
| Rbf2 | DRSC16816 | 2.09e5 | 2.00e5 | 2.02e5 | 2.17e5 | 16540 |
| Sur | DRSC03447 | 2.61e5 | 2.54e5 | 2.40e5 | 2.65e5 | 16540 |
| Hap40 | DRSC20085 | 1.82e5 | 1.41e5 | 2.24e5 | 1.91e5 | 11970 |
| CG12851 | DRSC04131 | 1.86e5 | 1.63e5 | 1.51e5 | 1.49e5 | 12915 |
| CG9536 | DRSC03254 | 1.71e5 | 1.87e5 | 1.53e5 | 1.82e5 | 19085 |
| CG42663 | DRSC06158 | 76480 | 78780 | 1.29e5 | 1.11e5 | 7055 |
| CG42663 | DRSC06404 | 87140 | 71485 | 1.27e5 | 1.12e5 | 9255 |
| CG13526 | DRSC04168 | 1.76e5 | 1.39e5 | 1.60e5 | 1.53e5 | 11700 |
| GIIIspla2 | DRSC18094 | 2.04e5 | 1.56e5 | 2.21e5 | 2.08e5 | 14125 |
| CG15545 | DRSC15083 | 1.24e5 | 1.06e5 | 1.58e5 | 1.65e5 | 9555 |
| CG8858 | DRSC07290 | 1.07e5 | 1.15e5 | 1.72e5 | 1.71e5 | 12065 |
| obst-E | DRSC02128 | 53100 | 56590 | 52680 | 56220 | 3265 |
| rdog | DRSC14431 | 1.89e5 | 2.27e5 | 2.46e5 | 2.91e5 | 15570 |
| His3:CG33818 + His3:CG33857 + His3:CG33806 + 20 more | DRSC21267 | 2960 | 3465 | 5165 | 4678 | 832 |
| phyl | DRSC07663 | 63935 | 89530 | 91715 | 87545 | 7820 |
| ple | DRSC11383 | 1.65e5 | 1.59e5 | 1.68e5 | 1.83e5 | 10450 |
| CG13245 | DRSC02243 | 1.88e5 | 1.63e5 | 1.47e5 | 1.34e5 | 11565 |
| Rdl | DRSC11264 | 1.07e5 | 87715 | 77190 | 35235 | 9265 |
| CG42346 | DRSC20622 | 94075 | 99380 | 1.30e5 | 1.58e5 | 10570 |
| CG42346 | DRSC20644 | 1.15e5 | 1.09e5 | 1.51e5 | 1.64e5 | 9950 |
| Gld | DRSC12595 | 77255 | 1.17e5 | 94975 | 89115 | 7382 |
| CG4617 | DRSC18377 | 1.66e5 | 1.32e5 | 1.87e5 | 1.88e5 | 9555 |
| Pkc98E | DRSC16791 | 2.33e5 | 1.95e5 | 3.23e5 | 3.27e5 | 16675 |
| CG31344 | DRSC16069 | 2.21e5 | 2.36e5 | 2.12e5 | 2.32e5 | 20275 |

Looked up above:
CG30413 [DRSC04001], control promoter light, run 1, well b = 2.53e5
ple [DRSC11383], control promoter light, run 1, well b: 1.83e5
